# Measurements as given in paper PMC7279249 (International Journal of Molecular Sciences, 2020).
# Assay: general procedure: Fmoc solid-phase peptide synthesis
# Conditions: whole synthesis
Substance,final purity (method not given),isolated yield
PEPTIDE1{[ac].K.W.K.W.[am]}$$$$V2.0,purity>95%,yield 63%
PEPTIDE1{[ac].[TzCat].[TzBn2].[TzCat].[TzBn2].[am]}$$$$V2.0,purity>95%,yield 54%

# HELM strings list residues between dots; [ac] is acetyl, [am] amide, other brackets name non-standard units.
